Experimental data: PubChem BioAssay AID1259308 (NCATS, 2017)
Here is one part, drawn at random, of about 59,000 reagents. About 1,510 of them (2.6%) count as active. 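Calls use total luciferase alone and ignore viability, so some active siRNAs may act by altering cell number.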 The numbers tell different reagents against one gene apart.

Test: 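Genes whose loss raises luciferase production in HEK293 cells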 (primary screen)
Cells: human HEK293 embryonic kidney cells stably expressing firefly luciferase (HEK-CMV-Luc2-Hygro)
Reagent: single siRNA against human genes, 0.8 pmol siRNA per well
Duration: 72 h
Read-out: 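Luciferase light (ONE-Glo) measured on one replicate plate set and viability (CellTiter-Glo) on the other, scaled to a negative control siRNA, with robust z-scores and luciferase per cell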
Reading the numbers: total luciferase, z-score and total luciferase, % of control: higher = more reporter protein produced; luciferase per cell, z-score: higher = more reporter output per viable cell; viable cells, % of control: higher = more viable cells
Active means: 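An siRNA counts as active if its total luciferase robust z-score exceeds 3; genes with two or more such siRNAs out of three were retested with fresh siRNAs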
Calls: active = raised luciferase; inactive = no rise

The opening 4 records, to show the layout:
gene,reagent,"total luciferase, z-score","total luciferase, % of control","luciferase per cell, z-score","viable cells, % of control",call
S100A14 (S100 calcium binding protein A14),1,-0.886,64.3,-0.435,80.5,inactive
S100A14 (S100 calcium binding protein A14),2,2.25,127,1.45,96.7,inactive
S100A14 (S100 calcium binding protein A14),3,-1.64,49.3,-0.976,71.2,inactive
TENT4B (terminal nucleotidyltransferase 4B),1,-0.188,78.2,0.377,79.1,inactive

Results, from the first entry:
gene,reagent,"total luciferase, z-score","total luciferase, % of control","luciferase per cell, z-score","viable cells, % of control",call
S100A14 (S100 calcium binding protein A14),1,-0.886,64.3,-0.435,80.5,inactive
S100A14 (S100 calcium binding protein A14),2,2.25,127,1.45,96.7,inactive
S100A14 (S100 calcium binding protein A14),3,-1.64,49.3,-0.976,71.2,inactive
TENT4B (terminal nucleotidyltransferase 4B),1,-0.188,78.2,0.377,79.1,inactive
TENT4B (terminal nucleotidyltransferase 4B),2,-1.4,54,-1.24,83.7,inactive
TENT4B (terminal nucleotidyltransferase 4B),3,-0.882,64.3,-0.672,85.8,inactive
TMEM204 (transmembrane protein 204),1,-1.08,60.5,-1.75,107,inactive
TMEM204 (transmembrane protein 204),2,-0.0881,80.1,-0.238,95.3,inactive
TMEM204 (transmembrane protein 204),3,-1.86,45,-2.48,96.7,inactive
NMRAL1 (NmrA like redox sensor 1),1,0.12,84.3,-0.269,101,inactive
NMRAL1 (NmrA like redox sensor 1),2,-0.0376,81.1,0.598,77.5,inactive
NMRAL1 (NmrA like redox sensor 1),3,2.28,127,2.11,81.6,inactive
DYNC1H1 (dynein cytoplasmic 1 heavy chain 1),1,-1.25,57,-1.31,89.9,inactive
DYNC1H1 (dynein cytoplasmic 1 heavy chain 1),2,-0.115,79.6,-0.439,99.9,inactive
DYNC1H1 (dynein cytoplasmic 1 heavy chain 1),3,1.53,112,1.35,87.9,inactive
RWDD1 (RWD domain containing 1),1,0.307,88,0.555,85,inactive
RWDD1 (RWD domain containing 1),2,1.08,103,1.55,76.7,inactive
RWDD1 (RWD domain containing 1),3,0.0685,83.2,-0.488,106,inactive
RRS1 (regulator of ribosome synthesis 1),1,0.21,86.1,0.195,91.4,inactive
RRS1 (regulator of ribosome synthesis 1),2,-1.33,55.4,-1.4,89.6,inactive
RRS1 (regulator of ribosome synthesis 1),3,-0.04,81.1,0.335,83,inactive
HMGN1P31,1,0.105,84,-0.121,96.9,inactive
HMGN1P31,2,0.832,98.4,1.13,81.6,inactive
HMGN1P31,3,1.21,106,1.2,86.2,inactive
FBXW9 (F-box and WD repeat domain containing 9),1,-1.08,60.5,0.474,59.7,inactive
FBXW9 (F-box and WD repeat domain containing 9),2,-0.215,77.6,-0.464,98,inactive
FBXW9 (F-box and WD repeat domain containing 9),3,-1.25,57.1,-0.752,77.7,inactive
REEP4 (receptor accessory protein 4),1,0.869,99.2,2.13,63.2,inactive
REEP4 (receptor accessory protein 4),2,-0.169,78.5,-0.0899,89.8,inactive
REEP4 (receptor accessory protein 4),3,0.434,90.5,0.871,80.4,inactive
ZNG1E (Zn regulated GTPase metalloprotein activator 1E),1,3.54,152,2.36,91.3,active
ZNG1E (Zn regulated GTPase metalloprotein activator 1E),2,-0.801,66,-0.112,75.9,inactive
ZNG1E (Zn regulated GTPase metalloprotein activator 1E),3,-0.487,72.2,-0.574,93.8,inactive
EIF3J-DT (EIF3J divergent transcript),1,0.698,95.8,0.644,90.3,inactive
EIF3J-DT (EIF3J divergent transcript),2,-0.883,64.3,0.489,63.2,inactive
EIF3J-DT (EIF3J divergent transcript),3,0.183,85.5,0.419,85.6,inactive
CREB5 (cAMP responsive element binding protein 5),1,-0.293,76.1,-0.123,87.8,inactive
CREB5 (cAMP responsive element binding protein 5),2,0.492,91.7,-0.00046,102,inactive
CREB5 (cAMP responsive element binding protein 5),3,-0.864,64.7,-1.96,121,inactive
CREB5 (cAMP responsive element binding protein 5),4,-0.427,73.4,-0.957,105,inactive
CREB5 (cAMP responsive element binding protein 5),5,-0.444,73.1,1.03,62.2,inactive
CREB5 (cAMP responsive element binding protein 5),6,-1.31,55.9,-0.891,79,inactive
UBXN10 (UBX domain protein 10),1,-0.257,76.8,-0.281,92.4,inactive
UBXN10 (UBX domain protein 10),2,0.481,91.5,0.453,90.7,inactive
UBXN10 (UBX domain protein 10),3,-0.323,75.5,-0.486,95.8,inactive
TMEM120B (transmembrane protein 120B),1,1.08,103,1.11,86.2,inactive
TMEM120B (transmembrane protein 120B),2,-0.329,75.3,-0.425,94.2,inactive
TMEM120B (transmembrane protein 120B),3,2.15,125,2.34,75.3,inactive
ZNF253 (zinc finger protein 253),1,0.698,95.8,1.61,70.1,inactive
ZNF253 (zinc finger protein 253),2,1.68,115,1.18,94.3,inactive
ZNF253 (zinc finger protein 253),3,-0.804,65.9,0.91,58,inactive
ATP9B (ATPase phospholipid transporting 9B),1,0.312,88.1,-0.0727,100,inactive
ATP9B (ATPase phospholipid transporting 9B),2,-0.196,78,-0.702,105,inactive
ATP9B (ATPase phospholipid transporting 9B),3,-1.19,58.3,-1.34,92.5,inactive
KRTAP26-1 (keratin associated protein 26-1),1,3.5,151,2.31,92.3,active
KRTAP26-1 (keratin associated protein 26-1),2,-0.538,71.2,-0.13,82.3,inactive
KRTAP26-1 (keratin associated protein 26-1),3,-0.139,79.1,0.278,82.2,inactive
